Results deposited as PubChem BioAssay AID1259308 (NCATS, 2017).
Screen: 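Knock-downs that increase output of a recombinant reporter protein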 (primary screen). Cells: human HEK293 embryonic kidney cells stably expressing firefly luciferase (HEK-CMV-Luc2-Hygro). Knock-down reagent: single siRNA against human genes, 0.8 pmol siRNA per well. Time to read-out: 72 h. Read-out: 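Reporter luminescence and viable-cell signal on separate replicate plates, given as percent of non-targeting control and median/MAD z-scores, plus per-cell luciferase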. Reading the numbers: total luciferase, z-score and total luciferase, % of control: higher = more reporter protein produced. Active means: 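An siRNA counts as active if its total luciferase robust z-score exceeds 3; genes with two or more such siRNAs out of three were retested with fresh siRNAs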. Calls: active = raised luciferase; inactive = no rise.
The deposit covers about 59,000 reagents; below is an unselected part. Over the whole deposit, about 1,510 (2.6%) got an active call. 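Calls use total luciferase alone and ignore viability, so some active siRNAs may act by altering cell number.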 Reagents against one gene are numbered here. Further read-outs or replicates are left out here.

target	siRNA no.	total luciferase, z-score	total luciferase, % of control	Call
LECT2 (leukocyte cell derived chemotaxin 2)	1	-0.000419	81.9	inactive
LECT2 (leukocyte cell derived chemotaxin 2)	2	-1.42	53.7	inactive
LECT2 (leukocyte cell derived chemotaxin 2)	3	0.473	91.3	inactive
LOC729187 (retired record)	1	-1.6	50.1	inactive
LOC729187 (retired record)	2	-0.0136	81.6	inactive
LOC729187 (retired record)	3	0.762	97	inactive
PDE4C (phosphodiesterase 4C)	1	0.517	92.2	inactive
PDE4C (phosphodiesterase 4C)	2	-0.171	78.5	inactive
PDE4C (phosphodiesterase 4C)	3	-0.327	75.4	inactive
SPEF2 (sperm flagellar and cilia associated 2)	1	0.0572	83	inactive
SPEF2 (sperm flagellar and cilia associated 2)	2	-0.0671	80.6	inactive
SPEF2 (sperm flagellar and cilia associated 2)	3	-1.35	55	inactive
CTNNAL1 (catenin alpha like 1)	1	-1.82	45.6	inactive
CTNNAL1 (catenin alpha like 1)	2	1.2	106	inactive
CTNNAL1 (catenin alpha like 1)	3	1.9	120	inactive
CNTF (ciliary neurotrophic factor)	1	3.37	149	active
CNTF (ciliary neurotrophic factor)	2	1.44	110	inactive
CNTF (ciliary neurotrophic factor)	3	3.34	148	active
ATPSCKMT (ATP synthase c subunit lysine N-methyltransferase)	1	-1.54	51.3	inactive
ATPSCKMT (ATP synthase c subunit lysine N-methyltransferase)	2	-0.865	64.7	inactive
ATPSCKMT (ATP synthase c subunit lysine N-methyltransferase)	3	-1.68	48.6	inactive
OR7A5 (olfactory receptor family 7 subfamily A member 5)	1	-0.407	73.8	inactive
OR7A5 (olfactory receptor family 7 subfamily A member 5)	2	-0.21	77.7	inactive
OR7A5 (olfactory receptor family 7 subfamily A member 5)	3	1.04	102	inactive

2 neighbouring reagents from above, quoted:
target	siRNA no.	total luciferase, z-score	total luciferase, % of control	Call
CTNNAL1 (catenin alpha like 1)	2	1.2	106	inactive
CTNNAL1 (catenin alpha like 1)	3	1.9	120	inactive

Continued.
target	siRNA no.	total luciferase, z-score	total luciferase, % of control	Call
TMEM254 (transmembrane protein 254)	1	0.207	86	inactive
TMEM254 (transmembrane protein 254)	2	-0.158	78.7	inactive
TMEM254 (transmembrane protein 254)	3	-0.159	78.7	inactive
RIOK3 (RIO kinase 3)	1	0.404	89.9	inactive
RIOK3 (RIO kinase 3)	2	-0.825	65.5	inactive
RIOK3 (RIO kinase 3)	3	-1	61.9	inactive
COL1A2 (collagen type I alpha 2 chain)	1	1.5	112	inactive
COL1A2 (collagen type I alpha 2 chain)	2	-0.389	74.2	inactive
COL1A2 (collagen type I alpha 2 chain)	3	0.219	86.2	inactive
SRSF5 (serine and arginine rich splicing factor 5)	1	-0.811	65.8	inactive
SRSF5 (serine and arginine rich splicing factor 5)	2	-0.576	70.4	inactive
SRSF5 (serine and arginine rich splicing factor 5)	3	3.81	158	active
RAB4A (RAB4A, member RAS oncogene family)	1	0.933	100	inactive
RAB4A (RAB4A, member RAS oncogene family)	2	-0.724	67.5	inactive
RAB4A (RAB4A, member RAS oncogene family)	3	-0.586	70.2	inactive
